One substance from publication PMC3677378 can be followed below.

By UniProt entry, the sequences of proteins in these tests, tags left out.
UniProt P0A7I4: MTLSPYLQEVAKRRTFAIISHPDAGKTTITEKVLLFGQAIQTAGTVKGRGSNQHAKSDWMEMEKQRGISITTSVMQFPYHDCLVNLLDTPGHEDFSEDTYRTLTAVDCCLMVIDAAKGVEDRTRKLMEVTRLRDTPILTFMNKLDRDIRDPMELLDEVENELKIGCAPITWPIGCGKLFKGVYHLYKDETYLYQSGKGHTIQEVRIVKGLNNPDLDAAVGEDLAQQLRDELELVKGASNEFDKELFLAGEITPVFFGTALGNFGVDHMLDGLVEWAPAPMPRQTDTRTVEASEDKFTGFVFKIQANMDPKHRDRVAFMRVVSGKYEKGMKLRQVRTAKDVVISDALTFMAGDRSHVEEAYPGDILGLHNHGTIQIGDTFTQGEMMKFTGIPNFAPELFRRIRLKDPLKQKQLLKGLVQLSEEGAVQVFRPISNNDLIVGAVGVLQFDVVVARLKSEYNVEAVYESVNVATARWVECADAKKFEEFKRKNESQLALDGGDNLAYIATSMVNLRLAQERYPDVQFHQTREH

Results are given in words; binding and its absence hold for the method and conditions named.

In the assay the target is ribosomal protein L11 (E. coli) (UniProt P0A7J7). In words: cryo-EM structure; RC-RF1•RF3 map, class of ~29,000 projection images, 9.7 Å (FSC 0.5), 70S in MS-I conformation, residual free GDP and no GTP; atomic models fitted by MDFF; both purified.

For the substance “release factor 3 (RF3), apo-form (from UniProt P0A7I4 1-529)”, the binding result is given as “no binding”.
